No constants are given. Whether binding was seen depends on the method and setting. Binding seen in cells or lysates may run through a third protein. Some results given as binding are weak or reduced against the parent protein; the word gives no strength. For some assays here: Tags and fused reporters may be left off the sequences shown. Blank lines part the entries; values can stand above or below the molecule they belong to.
What was measured:
[1] = target: human separase, Extra Spindle Pole Bodies-Like 1 (ESPL1) (human (endogenous in SV40-fibroblasts and primary fibroblasts)) (UniProt Q14674); experiment: co-IP; SV40-fibroblast whole cell extracts pre-treated with benzonase nuclease; 5 µg anti-ESPL1 or anti-lamin A antibody on Dynabeads protein G, 1.5 h at RT; western blot for ESPL1 and lamin A
[2] = target: T1, GST-SSE (Drosophila separase fused to GST) (Drosophila) (UniProt Q9VRN6); experiment: pull-down; GST fusion proteins bound to glutathione sepharose beads as baits, incubated with third instar larval brain extracts for 1 h at 4 °C in 20 mM Hepes KOH, 20 mM NaF, 0.8% NP40; western blot with anti-Dm0 or anti-LamC; only the target purified
T1 sequence: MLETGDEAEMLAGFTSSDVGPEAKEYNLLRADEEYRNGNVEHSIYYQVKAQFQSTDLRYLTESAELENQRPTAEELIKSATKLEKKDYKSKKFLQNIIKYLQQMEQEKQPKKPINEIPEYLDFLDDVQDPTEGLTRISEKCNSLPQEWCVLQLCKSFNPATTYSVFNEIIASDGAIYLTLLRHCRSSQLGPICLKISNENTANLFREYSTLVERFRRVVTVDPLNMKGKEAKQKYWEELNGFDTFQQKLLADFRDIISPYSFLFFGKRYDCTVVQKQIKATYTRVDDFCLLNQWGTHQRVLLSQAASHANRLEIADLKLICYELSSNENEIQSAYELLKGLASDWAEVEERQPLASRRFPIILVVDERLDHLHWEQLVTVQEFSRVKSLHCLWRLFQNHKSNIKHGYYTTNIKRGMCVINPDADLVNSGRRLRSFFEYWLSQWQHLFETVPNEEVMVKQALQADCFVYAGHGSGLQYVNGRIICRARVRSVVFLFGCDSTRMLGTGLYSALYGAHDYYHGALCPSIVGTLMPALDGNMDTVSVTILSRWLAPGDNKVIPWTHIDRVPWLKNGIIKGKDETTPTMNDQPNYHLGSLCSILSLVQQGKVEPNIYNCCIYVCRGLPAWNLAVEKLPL

Amino acid sequences for entries named in this document (tags omitted). Residues count along the entry.
UniProt Q14674: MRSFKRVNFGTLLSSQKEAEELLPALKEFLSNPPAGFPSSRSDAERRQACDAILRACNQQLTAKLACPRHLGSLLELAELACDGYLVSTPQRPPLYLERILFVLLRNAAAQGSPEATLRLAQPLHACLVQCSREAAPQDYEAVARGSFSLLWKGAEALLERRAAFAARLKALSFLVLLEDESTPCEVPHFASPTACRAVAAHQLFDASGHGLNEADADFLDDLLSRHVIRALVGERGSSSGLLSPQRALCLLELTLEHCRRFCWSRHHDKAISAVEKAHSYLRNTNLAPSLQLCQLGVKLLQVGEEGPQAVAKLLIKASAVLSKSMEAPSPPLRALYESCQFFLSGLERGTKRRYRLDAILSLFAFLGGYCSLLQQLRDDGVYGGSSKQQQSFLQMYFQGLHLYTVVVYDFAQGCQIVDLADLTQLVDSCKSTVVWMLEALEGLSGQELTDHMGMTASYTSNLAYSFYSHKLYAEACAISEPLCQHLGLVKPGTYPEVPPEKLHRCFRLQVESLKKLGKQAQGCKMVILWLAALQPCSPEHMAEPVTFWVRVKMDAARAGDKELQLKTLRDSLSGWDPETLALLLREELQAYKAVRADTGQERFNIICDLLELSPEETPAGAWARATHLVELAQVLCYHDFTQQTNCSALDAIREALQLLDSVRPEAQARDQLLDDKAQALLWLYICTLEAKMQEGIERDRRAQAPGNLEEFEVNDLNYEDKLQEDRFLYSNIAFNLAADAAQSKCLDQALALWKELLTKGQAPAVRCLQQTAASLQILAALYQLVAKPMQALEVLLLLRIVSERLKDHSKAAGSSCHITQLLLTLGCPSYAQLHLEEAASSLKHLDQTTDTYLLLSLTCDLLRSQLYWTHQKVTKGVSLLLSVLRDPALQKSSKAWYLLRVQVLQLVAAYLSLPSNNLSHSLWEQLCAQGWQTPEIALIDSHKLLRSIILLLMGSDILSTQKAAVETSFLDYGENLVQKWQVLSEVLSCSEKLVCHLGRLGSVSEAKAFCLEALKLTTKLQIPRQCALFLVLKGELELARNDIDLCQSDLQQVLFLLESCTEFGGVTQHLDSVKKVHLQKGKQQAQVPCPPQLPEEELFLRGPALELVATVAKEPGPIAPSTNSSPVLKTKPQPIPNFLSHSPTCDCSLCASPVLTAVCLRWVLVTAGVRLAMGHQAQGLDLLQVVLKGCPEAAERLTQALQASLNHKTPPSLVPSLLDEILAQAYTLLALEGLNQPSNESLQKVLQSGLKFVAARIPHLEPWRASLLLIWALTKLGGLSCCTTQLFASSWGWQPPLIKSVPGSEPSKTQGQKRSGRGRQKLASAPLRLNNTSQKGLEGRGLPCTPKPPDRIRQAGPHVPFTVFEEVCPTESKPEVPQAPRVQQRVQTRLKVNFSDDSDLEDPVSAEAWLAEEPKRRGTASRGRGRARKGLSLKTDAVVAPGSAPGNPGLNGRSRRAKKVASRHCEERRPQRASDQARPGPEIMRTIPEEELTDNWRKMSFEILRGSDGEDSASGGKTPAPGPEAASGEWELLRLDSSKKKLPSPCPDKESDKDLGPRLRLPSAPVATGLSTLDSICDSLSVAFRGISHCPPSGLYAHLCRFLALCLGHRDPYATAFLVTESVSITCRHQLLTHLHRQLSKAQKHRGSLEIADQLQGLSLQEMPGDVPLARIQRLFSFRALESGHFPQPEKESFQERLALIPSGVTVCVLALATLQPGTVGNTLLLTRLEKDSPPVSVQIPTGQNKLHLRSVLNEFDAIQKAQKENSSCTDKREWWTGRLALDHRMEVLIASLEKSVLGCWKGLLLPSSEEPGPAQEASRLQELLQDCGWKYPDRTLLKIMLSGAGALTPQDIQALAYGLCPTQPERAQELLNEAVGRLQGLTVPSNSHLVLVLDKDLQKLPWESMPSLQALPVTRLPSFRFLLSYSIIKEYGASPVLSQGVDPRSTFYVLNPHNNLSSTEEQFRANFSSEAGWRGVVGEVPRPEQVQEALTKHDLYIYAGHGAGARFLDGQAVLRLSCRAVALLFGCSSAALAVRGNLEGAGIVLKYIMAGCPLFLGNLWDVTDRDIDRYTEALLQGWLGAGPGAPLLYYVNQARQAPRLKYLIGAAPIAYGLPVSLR
UniProt P02545, residues 1-646: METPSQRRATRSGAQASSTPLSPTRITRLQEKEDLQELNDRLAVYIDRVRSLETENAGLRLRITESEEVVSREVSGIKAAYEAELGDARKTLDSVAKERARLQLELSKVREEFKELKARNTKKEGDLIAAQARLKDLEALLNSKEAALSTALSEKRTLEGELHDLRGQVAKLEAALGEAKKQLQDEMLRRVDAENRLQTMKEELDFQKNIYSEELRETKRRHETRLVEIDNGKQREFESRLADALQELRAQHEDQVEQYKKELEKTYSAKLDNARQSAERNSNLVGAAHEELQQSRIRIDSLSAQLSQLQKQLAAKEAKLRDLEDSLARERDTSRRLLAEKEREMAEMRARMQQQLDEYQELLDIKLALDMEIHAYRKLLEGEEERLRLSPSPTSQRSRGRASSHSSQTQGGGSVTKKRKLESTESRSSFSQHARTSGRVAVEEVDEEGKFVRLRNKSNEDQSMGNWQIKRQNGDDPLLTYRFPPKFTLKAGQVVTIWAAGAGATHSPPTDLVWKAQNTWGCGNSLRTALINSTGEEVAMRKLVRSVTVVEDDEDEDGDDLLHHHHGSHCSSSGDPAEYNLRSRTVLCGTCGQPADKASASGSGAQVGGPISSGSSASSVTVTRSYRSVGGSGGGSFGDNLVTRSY

- binding [1]: binds
Molecule: human lamin A (from UniProt P02545 1-646)

- binding [2]: binds
B1: A/C-type lamin C (LamC) (protein, UniProt Q03427 1-621)
chain: MSARRVTLNTRVSRASTSTPVGGASTSSRVGATSPTSPTRTSRQQEKEELQHLNDRLACYIDRMRNLENENSRLTQELNLAQDTVNRETSNLKAVYEKELAAARKLLDETAKEKAKLEIDIKRLWEENDDLKPRLDKKTKEATVAENNARLYENRYNEVNGKYNQSLADRKKFEDQAKELALENERLRRQLDDLRKQLEAETLARVDLENQNQSLREELAFKDQVHTQELTETRSRRQIEISEIDGRLSRQYEAKLQQSLQELRDQYEGQMRINREEIELLYDNEIQNLKAAANRAAQGSALATEEVRLMRTKIDGLNAKLQNLEDTNAGLNARIRELENLLDTERQRHNQYIASLEAELQRMRDEMAHQLQEYQGLMDIKVSLDLEIAAYDKLLCGEERRLNIESPGRPTTDSGISSNGSHLTASASSRSGRVTPSGRRSATPGISGSSAVKRRRTVIDESEDRTLSEYSVNAAAKGDLEIIEADVEGRFIKLHNKGTEEINLTGWQLTRIAGDEELAFKFSRGSKVLGGASVTIWSVDAGTAHDPPNNLVMKKKWPVANSMRSVLANADKEDVASYDRVRANVSSHTSRHRSSGTPSTGFTLGSGAGSTGVRSLFSLLF

— PMC12540686
